The supplement of paper PMC11237882
The list shows a part of the results. Values are worked out from sequencing counts and are noisy.

T1: Homer1 EVH1 domain
T1 chain: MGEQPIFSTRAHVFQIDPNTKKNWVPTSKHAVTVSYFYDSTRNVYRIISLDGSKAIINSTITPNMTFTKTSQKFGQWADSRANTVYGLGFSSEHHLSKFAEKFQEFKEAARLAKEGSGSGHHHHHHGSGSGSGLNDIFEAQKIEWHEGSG


Biological target: T1, Homer1 EVH1 domain
Assay: enrichment score (AUC of log2 frequency ratio across FACS sorting rounds) (log2 AUC); higher = stronger enrichment for Homer1 EVH1 binding

| Binder | enrichment score |
| --- | --- |
| MLLLARCLLLVLVSSLLVCSGLACGPGRGFGKRRHP | 0.271 |
| LRSSQRLQKRHQHLESESRTLAAKMAALASMAHGMA | 1.49 |
| LLGILALVLLPVILLPFYYTGVGVLITEVAEDSPAI | 1.27 |
| LLSHGAKEDFHPPAEDWKPQSSHWGAALKDLHRIYR | 1.44 |
| YTLVSKLNLTNDGNLSNDWDFPRNGLLMPLLGVIFL | -2.28 |
| TVTFGVITSIVTWGLAVLAALPEFIFYETEELFEET | -0.0353 |
| MTIHQFLLLFLFWVCLPHFCSPEIMFRRTPVPQQRI | 2.83 |
| LKSHQFFQSTWDTVAFIVFLTFMGTVLLLLLLVVAH | 0.391 |
| QFATAYQGTRARSDNTHYWLIISCSIAYVALVTLRI | 2.22 |
| IIFLLIFIIINWAAVKAFWGAKASTPEVQSDQSSVR | 1.81 |
| SGLLSLSCFLLLLISYTVILLAIRQRAAGSTSKALS | 2.7 |
| ILVPSAILAAFLLIWSVKCCRAQLEARRSRHPADGA | 2.12 |
| RYAMVLFRITSVFYMLWLPYIIYLLLESSRVLDNPT | 2.28 |
| LPCTEKAFFSRVLTYFIALSIGTLLSNALFQLIPVA | 2.82 |
| PLMKISPWWYFAVISVSGVFAVTFSVVFAYVADITQ | -0.44 |
| GKLFIAPLIMVLGLALGAIAVVIVEEIKTYWNLISG | 1.02 |
| AVSASMPQVSYLKAVGVYLWVSSLFVFLSVIEYAAV | 3.41 |
| DPQRLGVLITPVPDAQAATRRQAVGLLAFLGLLFCL | 3.8 |
| VASKASIPTLPISIYLLLSYFAFISVLFAKIVYTKY | 4.2 |
| SQFGTIVLHVSEILYEDLHFVAVILAFLAAVAAVLI | 2.47 |
| SSGQLWSWMVCLAGLCAVCLLILSPFWGLIFFSVSR | 0.749 |
| QFGVLFCTILLLLWVSVFLYGSFYYSYMPTVSHLSP | 3.27 |

| Binder | enrichment score |
| --- | --- |
| PPAFYRPNSDNRRQGGRERLASTNDKGSMAMESAKD | 0.929 |
| MTKLRASTTSETIQYRKAVKATLVLLPLLGITYMLF | 0.31 |
| IPFGTLVAILALWFCISVPLTFIGAYFGFKKNAIEH | 1.57 |
| FFTVIFATFSAIIFLSFEAVSSLSKLGEVEDARGFT | 0.171 |
| MEPQNTSTVTNFQLLGFQNLLEWQALLFVIFLLIYC | 0.758 |
| QRGLRERHRLQATSHRKTSLPCPLPVLPRIPSSNCR | 2.32 |
| LVAWGASLGAWSLLTNRQRNRQAQLLPRAPWKKAQS | 2.2 |
| EKSFICYALFGLFATLGFFAPSLYIIPLGISLGIDQ | 1.03 |
| KQSTCLSLPKCWDYRRAAVPGLFILFFLRHRCPTLT | -0.15 |
| HLSMKLDAFFGIFFGALGGLLLLGVGTFVVLRFWGC | 1.23 |
| PSMRPLFDFSWLSLKTLLSLALVGACITLGAYLGHK | 1.77 |
| YPPMPAMVPHHGFEDWSQIRYPPPPMAMEHPPPLPN | 0.501 |
| ERTGEPSASSDSTGTVGFSSILFIYIIFFLERYYRL | 0.61 |
| QNGLYTPQKFIDNRIISSKYTVWNFVPKNLFEQFRR | -1.39 |
| LPPSVGRPPGFPGAPSAFTSLPPSPRLSTLRILSPR | 5.55 |
| MGPPSSSGFYVSRAVALLLAGLVAALLLALAVLAAS | -0.222 |
| YADNILKGFATSLSIVLSTVASIRLFGFHVDPLFAL | 2.26 |
| RKGHCPCLTSCPPLHPLLSYLTVTGCMLNMVSAAPK | 1.43 |
| INAFLIVYLFILLTKAAVCTTLKYVWQSTPYNDEPW | 1.21 |
| PQDAIPRGTMLAIFITTVAYLGVAICVGACVVRDAT | 4.27 |
| MDQETVGNVVLLAIVTLISVVQNGFFAHKVEHESRT | 3.09 |
| MGKDFRYYSQHPWSRMIVAYLVIFFNFLIFAEDPVS | -0.558 |
